The values below are quoted from earlier work in patent US20170296498A1, “Rapid Relief of Motor Fluctuations in Parkinson's Disease” (Civitas Therapeutics, Inc., priority 2014, published 2017).

For this data set the following is noted: even when co-administered with carbidopa; cited from earlier work.

With `N[C@@H](Cc1ccc(O)c(O)c1)C(=O)O` [L-Dopa, levodopa], the plasma half-life was 1 to 3 h.
